In PubChem BioAssay AID651640 (Broad Institute, 2012):
The campaign covered roughly 350,000 compounds. About 6,000 (1.7%) were called active. Inconclusive means that the source gave no clear call. Such entries were picked first, then a sample of the others. Cut-off read from the data, not from the text of the source: active = CPE inhibition above about 20% (passing the limit was not always enough); inconclusive = no clear call, values can overlap the other calls; tested in BHK-21 cells.

Experiment: protection of cells from dengue 2 killing – plate reader, single concentration, primary screen (AID 651640);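 note: 0% = median of neutral control wells and 100% = median of positive control wells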
Settings: DENV2-infected cells, cytopathic effect rescue, at 9.99 µM, active compounds read high

Row | SMILES | CPE inhibition
1 | Cc1ccc(N)cc1N | active: 66%
2 | CC(=O)N1Cc2cnnn2-c2ccccc2C1(C#N)Cc1ccccc1 (configuration not stated) | inconclusive: 27.6%
3 | COC(=O)C1=C(c2cccc(Cl)c2)C[C@@H]2CC[C@H]1N2C(=O)NCC1CC1 | inconclusive: 21%
4 | O=C(Nc1cccc(Cl)c1)OCC#CCN1CCCC1 | inactive: 1.61%
5 | C[C@@H]1CN([C@H](C)CO)C(=O)CCCn2nncc2CO[C@H]1CN(C)C(=O)Oc1ccccc1 | inconclusive: 26.9%
6 | C[C@H]1C[C@@H](C)C(=O)[C@@H]([C@H](O)CC2CC(=O)NC(=O)C2)C1 | active: 124%
7 | CC(C)(C)C(=O)O[C@H]1CC[C@@]2(C)C(=CC(=O)C3C2CC[C@]2(C)C(=O)[C@H](O)CC32)C1 (some centres not stated) | inconclusive: 42.7%
8 | COc1nc2ccccc2nc1N1CC1 | inconclusive: 26.7%
9 | COC(=O)C1=C(c2ccc(F)cc2OCc2ccccc2)C[C@@H]2CC[C@H]1N2C(=O)NCc1ccc(Cl)cc1 | active: 91%
10 | CCN1C[C@]2(COC)CC[C@H](OC)[C@@]34C5C[C@H]6C(=O)C5[C@](O)(C[C@H]6OC)[C@@](O)(C(OC)C23)[C@@H]14 (some centres not stated) | active: 44.4%
11 | CCCC#Cc1ccc([C@H]2[C@H]3CN(C(=O)Cc4ccccn4)CCCCN3[C@H]2CO)cc1 | active: 20.6%
12 | C=CCC1([C@@H](C)CCC)C(=O)NC(=O)NC1=O | inconclusive: 23.4%
13 | Cc1cccc(NP2(=O)NCCCN2)c1 | inconclusive: 20.5%
14 | CSc1nc(C)c(Br)c(N2CC2)n1 | inconclusive: 29.6%
15 | CCN(CC)CCC(=O)O[C@H]1CC[C@]2(C)C3CC[C@@]4(C)C(CC[C@]4(C)O)C3CC[C@H]2C1 (some centres not stated) | inconclusive: 27.5%
16 | COC(=O)[C@@H]1[C@@H](CO)[C@@H]2Cn3c(ccc(C4=CCCCC4)c3=O)[C@H]1N2C(=O)CC1CC1 | inconclusive: 72%
17 | C[C@H]1CCCC(=O)CCC/C=C/c2cc(O)cc(O)c2C(=O)O1 | inconclusive: 25.5%
18 | COc1ccccc1/C=N/N=C(/N)N[N+](=O)[O-] | inconclusive: 21.7%
19 | C[C@H](CO)N1C[C@H](C)[C@@H](CN(C)C(=O)Oc2ccccc2)OCc2cnnn2CCCC1=O | inconclusive: 32.3%
20 | Cc1ccc2nc(-c3ccc(CN4CCC(n5c(=O)[nH]c6cc(Cl)ccc65)CC4)cc3)c(-c3ccccc3)nc2c1 | active: 52%
21 | O=C(Cc1cccnc1)N1CCCCN2[C@@H](CO)[C@@H](c3ccc(C#CC4(O)CCCC4)cc3)[C@@H]2C1 | active: 39.9%
22 | Clc1cccc(CNCCc2c[nH]c3ccccc23)c1 | inactive: 5.99%

A stretch from further up:
Row | SMILES | CPE inhibition
13 | Cc1cccc(NP2(=O)NCCCN2)c1 | inconclusive: 20.5%
14 | CSc1nc(C)c(Br)c(N2CC2)n1 | inconclusive: 29.6%
